# Source: PubChem BioAssay AID2685 (National Center for Advancing Translational Sciences (NCATS), 2010)
# Among all 320,000 compounds or so, about 2,100 (0.66%) were called active. The shares of active, inactive and inconclusive entries below differ from those in the screen. The call rests on the fitted dose curve; in most records, active means well fitted inhibition curve with a large enough effect in the signal ratio, with a control signal flat (not every such curve was filed as active); inconclusive means small, poorly fitted or top-dose-only effect, or effect the other way, or a change in a side signal; inactive means flat fitted curve, though single readings scatter; the % refers to the signal ratio. Potencies of inconclusive entries are doubtful fits and often do not repeat.
# Experiment: qHTS Assay for Lipid Storage Modulators in Drosophila S3 Cells
# Conditions: BODIPY lipid droplet fluorescence, 18-24 h, cells fed with added oleic acid; lipid storage change, negative = inhibition: at 46.1 µM (top of the series) unless noted
# How it was run: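 Drosophila S3 cells got compounds at several concentrations plus oleic acid (400 uM solution). Laser-scanning cytometry with 488 nm excitation read lipid droplets at 500-530 nm and cells at 575-640 nm. Percent activity was relative to 20 uM Triacsin C.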
# On the % scale 0 is the no-effect control and ±100 the full control effect; potency means the concentration at half of the fitted maximal effect.
SMILES,"lipid storage change, negative = inhibition",Potency
CC(C)NC(=O)CN1C(=O)c2ccccc2S1(=O)=O,inconclusive: 0.77%,–
COc1ccccc1N1CCN(C(=O)C2CCN(S(=O)(=O)c3ccccc3F)CC2)CC1,–,"inconclusive: 0.146 µM [falling, full curve, poor fit]"
CC(=O)c1cn(CC(=O)Nc2ccccc2)c2ccccc12,inconclusive: 40.1%,–
CCOc1ccc(NC(=O)N2CCCC2C(=O)NCC2CCCO2)cc1 (stereo not drawn),inconclusive: -1.94%,–
O=C(O)c1cccc(Nc2nc(-c3cccnc3)nc3ccccc23)c1,inconclusive: 21.4%,–
CCOC(=O)N1CCN(c2nc(N(c3ccccc3)c3ccccc3)nc(-n3ccnc3)n2)CC1,inconclusive: 43.4%,–
Cc1ccccc1NC(=O)NCCN1C(=O)C2C3C=CC(C3)C2C1=O (stereo not drawn),inconclusive: 24.6%,–
Cc1ccc(-c2nc3sc(C#N)c(N)n3c(=O)c2C#N)cc1,inconclusive: -39.1%,–
COc1ccccc1NC(=O)CN1C(=O)COc2ccc(C)cc21,inconclusive: 27.7%,–
CN1CCC(N(C)C(=O)COc2ccccc2-c2ccccc2)CC1,inconclusive: 34.6%,–
CCc1ccc(NC(=S)Nc2ccc3cn[nH]c3c2)cc1,inconclusive: 0.865%,–
O=C1CSC(c2cccc([N+](=O)[O-])c2)N1CCN1CCCCC1 (stereo not drawn),inconclusive: -5.17%,–
CCc1ccc(-n2c(SCC(=O)Nc3ccc(C(=O)O)cc3)nnc2-c2ccncc2)cc1,inconclusive: 8.84%,–
COc1ccc(Cn2nnc3c(C)n[nH]c(=O)c32)cc1,inconclusive: -23.4%,–
Cc1cccc(C)c1-n1nnnc1SCSc1nnnn1-c1c(C)cccc1C,–,"inconclusive: 6.51 µM [activator, single point]"
CCCCOC(=O)Nc1ccc(C(=O)OC)cc1,–,"inconclusive: 4.11 µM [activator, partial curve]"
Cc1cccc(-c2nsc(SCC(=O)NCC3CCCO3)n2)c1 (stereo not drawn),inconclusive: 2.02%,–
CC(C)n1ncc2c(C(=O)Nc3ccc(S(N)(=O)=O)cc3)cc(C3CC3)nc21,–,"inconclusive: 6.51 µM [activator, single point]"
O=C(O)c1ccc(CNCc2ccc(Cl)cc2Cl)cc1,–,"inconclusive: 3.26 µM [cytotoxic, full curve]"
COc1ccc(CNC(=O)C2CCN(c3nccs3)CC2)cc1,inconclusive: 1.5%,–
CC(=O)c1ccc(N2CCN(C(=O)Nc3cccc(F)c3)CC2)cc1,inconclusive: 10.1%,–
COCCCNC(=S)N(Cc1ccccc1)Cc1ccc(F)cc1,inconclusive: 36.4%,–
CCOC(=O)c1c(CSc2ccsc2)n(C)c2cc(Br)c(O)c(CN(C)C)c12,inconclusive: -4.53%,–
Cc1c(CNC(=O)c2nn3c(c2Cl)NC(c2ccccc2)CC3C(F)(F)F)cnn1C (stereo not drawn),inconclusive: 6.28%,–
CC1(C)CC(=O)C2=C(C1)Nc1nc(SCCN3CCOCC3)[nH]c(=O)c1C2c1cccs1 (stereo not drawn),inconclusive: 42.3%,–
O=[N+]([O-])c1ccc2[nH]c(O)c(N=NC3CCS(=O)(=O)C3)c2c1 (stereo not drawn),inconclusive: 14.7%,–

SMILES,"lipid storage change, negative = inhibition",Potency
CN1C(C(=O)NCc2ccc(OC(F)(F)F)cc2)CC2Cn3c(nc4cc5ccccc5cc43)C21 (stereo not drawn),inconclusive: 15%,–
c1ccc2c(c1)CCc1c(-c3ccncc3)n[nH]c1-2,–,active: 18.4 µM
Cc1ccc2nc(N/C(N)=N/S(=O)(=O)c3ccc([N+](=O)[O-])cc3)nc(C)c2c1,inconclusive: -52.4%,–
COc1ccc(C(=O)N=c2sccn2C)cc1,inconclusive: -12.9%,–
Cc1cccc(C)c1N1CCN(c2ccc3nnc(C(F)(F)F)n3n2)CC1,inconclusive: 214%,–
CCCc1ccc(NC(=O)C2CCN(c3cnccn3)CC2)cc1,–,"inconclusive: 4.11 µM [rising, single point]"
Cc1ccc(C(=O)NC2CCN(C(=O)Nc3ccccc3Cl)CC2)cc1,–,"inconclusive: 29.1 µM [activator, single point]"
Cc1cccc(C(=O)OCC(=O)N2CC(C)OC(C)C2)c1C (stereo not drawn),–,"inconclusive: 0.0052 µM [falling, full curve, poor fit]"
CC(=O)NC(CC(=O)NCC(c1ccco1)N(C)C)c1ccccc1 (stereo not drawn),–,"inconclusive: 0.0058 µM [falling, full curve, poor fit]"
Cc1cccc(NCc2nc(SCC(=O)Nc3ccccc3Br)n[nH]2)c1,inconclusive: 7.18%,–
CCCCn1c(SCC(=O)OC)nc2c1c(=O)n(C)c(=O)n2C,inconclusive: -10.7%,–
CC(/C=C/C=C/c1ccccc1)=N/NC(=O)CNc1ccccc1C,inconclusive: 22.4%,–
O=C(CN1CCCCCC1)Nc1cc([N+](=O)[O-])ccc1Cl,–,"inconclusive: 0.231 µM [activator, single point]"
O=C(Nc1cccc(S(=O)(=O)c2cccc(NC(=O)c3ccco3)c2)c1)c1ccco1,inconclusive: -44.5%,–
COc1ccc(/C=N/Nc2ccccc2)cc1Cn1nc(C)c([N+](=O)[O-])c1C,–,"inconclusive: 6.51 µM [activator, single point]"
COc1ccc(Cl)cc1NC(=O)CN(C)CC(=O)NCc1cccs1,inconclusive: 18.8%,–
O=C(NC(=S)Nc1ccccc1)c1cc(-c2ccccc2)nc2ccccc12,inconclusive: -56.9%,–
COc1ccc2c3n(nc2c1)CCN=C3c1cc(Cl)c(N)c(Cl)c1,–,"inconclusive: 20.6 µM [activator, single point]"
COCCCNC(=S)N/N=C/c1ccc(O)cc1O,–,"inconclusive: 1.46 µM [falling, full curve, poor fit]"
CCNC(=S)N1CCc2cc(OC)c(OC)cc2C1COc1ccc(OC)cc1 (stereo not drawn),inactive: 6.83%,–
Cc1ccc(NC(=O)CN2C(=O)S/C(=C\c3cc(Cl)c(OCC(=O)O)c(Cl)c3)C2=O)cc1,inconclusive: 16.6%,–
COc1ccccc1C(=O)Nc1cc(Cl)ccc1-n1cncn1,inconclusive: -33.5%,–
O=C1CC(N2CCN(c3ccc(O)cc3)CC2)C(=O)N1c1ccc2c(c1)OCO2 (stereo not drawn),–,"inconclusive: 0.13 µM [falling, full curve, poor fit]"
COc1ccc(CNC(=O)N2CCN(C(=O)c3ccccc3)CC2)cc1,inconclusive,–
O=[N+]([O-])c1ccccc1OCCOCCOc1cccc2cccnc12,–,"inconclusive: 0.82 µM [activator, full curve]"
COCc1cc(CNC(=O)C2CCC(=O)N(Cc3cccc(OC)c3)C2)[nH]n1 (stereo not drawn),inconclusive: 225%,–

SMILES,"lipid storage change, negative = inhibition",Potency
CC(=O)Nc1ccc(S(=O)(=O)NCCC(=O)N2CCCCC2)cc1,inconclusive,–
CCOc1cc(/C=C(\C#N)c2nc(-c3cccs3)c(NC(C)=O)s2)ccc1O,inconclusive: -54.4%,–
Cc1ccc(NC(=O)CC2OC(=O)c3ccccc32)cc1S(=O)(=O)N1CCOCC1 (stereo not drawn),inconclusive: 16.6%,–
CCCCc1nc(SCc2ccc([N+](=O)[O-])cc2)n[nH]1,inconclusive: -73.7%,–
COc1cccc(C(=O)COC(=O)C(C)N2C(=O)C3C4C=CC(C4)C3C2=O)c1 (stereo not drawn),inconclusive: 217%,–
Cc1ccc(CN2C(=O)C(=O)N(CC(N)=O)C2=O)cc1,inconclusive: 6.74%,–
COc1ccc(S(=O)(=O)N2CCC(C(=O)NCCC3=CCCCC3)CC2)cc1C,–,"inconclusive: 2.91 µM [falling, partial curve]"
O=C(CNC(=O)c1ccccc1Br)N/N=C/c1cccs1,inconclusive: 6.94%,–
CCOc1ccc(NC(=O)CN(C)C(=O)C2CC(=O)N(c3ccc4c(c3)OCCO4)C2)cc1OCC (stereo not drawn),inconclusive: 26.2%,–
O=C(c1ccc(-c2ccccc2)c(F)c1)C1CCCN(CCCn2cccn2)C1 (stereo not drawn),inactive: -9.68%,–
Nc1ccccc1C(=O)NCC1(c2ccccc2)CCCC1,inconclusive: -36.8%,–
CC1(C)CC(=O)c2sc(NS(C)(=O)=O)nc2C1,–,"inconclusive: 25.9 µM [falling, partial curve, poor fit]"
Cc1ccc2nc(CCc3nc4ccc(C)cc4[nH]3)[nH]c2c1,–,"inconclusive: 29.1 µM [falling, single point]"
CC(=O)NC12CC3CC(C1)CC(C(=O)N(C)Cc1cccc(Cl)c1Cl)(C3)C2,inconclusive: 54.5%,–
CCOC(=O)C1=C(Cn2ccc(C(F)(F)F)n2)NC(=O)NC1c1ccc2c(c1)OCO2 (stereo not drawn),inconclusive: 35.4%,–
CCCN1C(=O)/C(=C/c2ccc(N3CCCC3)c(C)c2)NC1=S,inconclusive: -98.6%,–
CCCNC(=O)NC(=O)CSc1nnc(-c2c[nH]c3ccccc23)o1,inconclusive: -1.45%,–
O=C(Nc1ccc(N2CCN(C(=O)c3ccccc3F)CC2)cc1)c1ncn[nH]1,inconclusive: 5.33%,–
COc1ccc(Nc2nc(N)nc(CN3CCN(c4ccccn4)CC3)n2)cc1,–,"inconclusive: 6.51 µM [activator, partial curve, poor fit]"
COc1ccc(OC)c(C(C)NC(=O)Nc2ccccc2)c1 (stereo not drawn),inconclusive: 13.5%,–
O=C(CSc1nnc(-c2ccccn2)o1)Nc1cccc(Cl)c1,–,"inconclusive: 4.61 µM [falling, single point]"
CN(C)C(=O)CSc1nnc(CCN)o1,inconclusive: -10.5%,–
Cc1cc(C(=O)Nc2ncc(C)s2)c2ccccc2n1,inconclusive: -0.512%,–
O=[N+]([O-])c1cc(Cl)ccc1NCCNS(=O)(=O)c1ccccc1,–,"inconclusive: 16.4 µM [activator, single point]"
CC(OC(=O)c1ccc(S(=O)(=O)N2CCCCC2)cc1)C(=O)Nc1ccc(C(N)=O)cc1 (stereo not drawn),inconclusive: 3.1%,–
COc1cccc(CN2CC(C(=O)NCc3ccc(C)o3)CCC2=O)c1 (stereo not drawn),inconclusive: 5.65%,–

# Full records as entered above. Values in the order: lipid storage change, negative = inhibition	Potency
# CCOC(=O)C1=C(Cn2ccc(C(F)(F)F)n2)NC(=O)NC1c1ccc2c(c1)OCO2 (stereo not drawn) is entered as inconclusive: 35.4%	–
# CN(C)C(=O)CSc1nnc(CCN)o1 is entered as inconclusive: -10.5%	–
# CCCNC(=O)NC(=O)CSc1nnc(-c2c[nH]c3ccccc23)o1 is entered as inconclusive: -1.45%	–
# O=C(CNC(=O)c1ccccc1Br)N/N=C/c1cccs1 is entered as inconclusive: 6.94%	–
